Among all 330,000 compounds or so, about 100 (0.03%) were called active. Inconclusive results, whose numbers are uncertain, are shown with a selection of clear calls. The call rests on the fitted dose curve; in most records, active means well fitted inhibition curve with a large enough effect; inconclusive means small, poorly fitted or top-dose-only effect; inactive means flat fitted curve, though single readings scatter. Where the call is inconclusive, the potency comes from a doubtful curve fit.
test system: Chaperonin Mm-Cpn (Methanococcus maripaludis); assay: Inhibitors of TCP-1 ring complex (TRiC) of Methanococcus maripaludis (MmCpn): qHTS; conditions: purified Mm-Cpn ATPase, ADP Transcreener TR-FRET; series mostly up to 76.9 µM; activity, negative = inhibition: at the top concentration; further: nearly all actives have a fitted effect of over 80% in size;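 on potency: enzyme at 25 nM with ATP substrate at 10 µM during the reaction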
Outline: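 ATP (10 uM final) was added to archaeal chaperonin (25 nM final) after 10 min exposure to test compound at 37°C; after 30 min further incubation, ADP was detected by competitive TR-FRET.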
On the % scale 0 is the no-effect control and ±100 the full control effect; potency means the concentration at half of the fitted maximal effect.

Row | Structure (SMILES) | Potency | activity, negative = inhibition
1 | CC[C@H](C)C(=O)O[C@H]1C[C@@H](C)C=C2C=C[C@H](C)[C@H](CC[C@@H]3C[C@@H](O)CC(=O)O3)[C@H]21 | inactive | –
2 | CCOC(=O)C1(CCCc2ccccc2)CCN(Cc2nccn2CC)CC1 | – | inactive: 4.1%
3 | COc1ccc(-c2csc(NC(=O)CSCC(=O)Nc3cc(C)on3)n2)c(OC)c1 | inconclusive: 56.2 µM [inhibitor, single point] | –
4 | Cc1ccc(C(=O)NC2CCS(=O)(=O)C2)cc1S(=O)(=O)N1CCCCCC1 (stereo not given) | – | inactive: -5.24%
5 | O=C(N/N=C\c1c(O)ccc2ccccc12)c1ccc(O)cc1 | – | inactive: 0.924%
6 | CN(C)/C=C/c1onc(-c2ccccc2Cl)c1C#N | inconclusive: 79.4 µM [inhibitor, single point] | –
7 | O=C(Nc1cc(F)cc(F)c1)c1sc(Cl)nc1-c1ccccc1 | active: 50.1 µM | –
8 | COc1cccc(CN(C)CC(=O)Nc2sc3c(c2C#N)CCC3)c1OC | – | inactive: -0.649%
9 | CCN1/C(=C\c2ccc3cc(C)ccc3[n+]2CC)Sc2cc(C)c(C)cc21 | inconclusive: 2000 µM [inhibitor, partial curve, poor fit] | –
10 | CCn1c2ccccc2c2cc(N=C3SC(CC(=O)Nc4ccccc4OC)C(=O)N3C)ccc21 (stereo not given) | inconclusive: 12.6 µM [inhibitor, single point] | –
11 | O=C(COC(=O)c1ccc(F)c(S(=O)(=O)N2CCOCC2)c1)NCCc1ccccc1 | inconclusive: 79.4 µM [inhibitor, single point] | –
12 | O=C(Nc1nc(-c2ccc(F)cc2)cs1)C1CCN(C(=O)c2ccc(F)cc2)CC1 | inconclusive: 79.4 µM [inhibitor, single point] | –
13 | COc1cc(OC)cc(C(=O)N[C@H](C(=O)OCC(=O)Nc2ccc3c(c2)OCO3)C(C)C)c1 | inconclusive: 6.31 µM [inhibitor, single point] | –
14 | CCOc1ccc(S(=O)(=O)NCc2cccnc2)cc1NC(=O)c1ccccc1F | inconclusive: 100 µM [inhibitor, single point] | –
15 | COc1ccc(N2C(=O)NC3CC2(C)Oc2ccc(Cl)cc23)cc1OC (stereo not given) | inconclusive: 89.1 µM [inhibitor, single point] | –
16 | O=C(Nc1ccc(C(F)(F)F)cc1)N1CCN(C(=O)c2ccco2)CC1 | inconclusive: 20 µM [inhibitor, single point] | –
17 | O=c1cc(CN2CCN(Cc3ccccc3)CC2)c2ccc(O)cc2o1 | – | inactive: -5.45%
18 | O=C(Nc1nc(-c2ccccn2)cs1)c1cc(S(=O)(=O)N2CCOCC2)ccc1F | – | inactive: -1.69%
19 | CC(C)=CCN1CCN(CCC2=C(C)CCCC2(C)C)CC1CCO (stereo not given) | inconclusive: 56.2 µM [inhibitor, single point] | –
20 | COc1ccc(CNC(=O)c2ccc(NC(=O)CC3SC(N4CCCC4)=NC3=O)cc2)cc1 (stereo not given) | inconclusive: 100 µM [inhibitor, partial curve, poor fit] | –
21 | COC(=O)c1c(-c2cc(OC)cc(OC)c2)sc2ccc(OC)cc12 | active: 35.5 µM | –
22 | COc1ccc(C(=O)/C=C/c2ccc(N3CCCCC3)c([N+](=O)[O-])c2)c(OC)c1 | – | inactive: -0.183%
23 | CCOC(=O)C1=C(N)Oc2cc(C)n(C)c(=O)c2C1c1ccncc1 (stereo not given) | – | inactive: -9.9%

Quoted from above: nos. 18 to 20
Row | Structure (SMILES) | Potency | activity, negative = inhibition
18 | O=C(Nc1nc(-c2ccccn2)cs1)c1cc(S(=O)(=O)N2CCOCC2)ccc1F | – | inactive: -1.69%
19 | CC(C)=CCN1CCN(CCC2=C(C)CCCC2(C)C)CC1CCO (stereo not given) | inconclusive: 56.2 µM [inhibitor, single point] | –
20 | COc1ccc(CNC(=O)c2ccc(NC(=O)CC3SC(N4CCCC4)=NC3=O)cc2)cc1 (stereo not given) | inconclusive: 100 µM [inhibitor, partial curve, poor fit] | –

(next part)

Row | Structure (SMILES) | Potency | activity, negative = inhibition
24 | Cc1ccccc1CSc1nnc(-c2ccncc2)o1 | inconclusive: 25.1 µM [inhibitor, single point] | –
25 | COc1ccc(CCC(=O)Nc2cc(S(=O)(=O)N3CCOCC3)ccc2OC(C)C)cc1 | – | inactive: -0.0393%
26 | O=C(NCC1CCN(Cc2ccccc2Cl)CC1)Nc1cccc(Cl)c1 | inconclusive: 25.1 µM [inhibitor, single point] | –
27 | CCNC(=S)Nc1cc(Cl)ccc1Oc1ccccc1 | inconclusive: 1580 µM [inhibitor, partial curve, poor fit] | –
28 | CCN(CC)S(=O)(=O)c1ccc(C(=O)NCc2n[nH]c(=S)n2-c2ccc(Cl)c(Cl)c2)cc1 | inconclusive: 11.2 µM [inhibitor, single point] | –
29 | Cn1c(SCC(=O)NCCc2ccccc2)nnc1-c1ccco1 | inconclusive: 70.8 µM [inhibitor, single point] | –
30 | C[C@@]12CCC=C[C@H]1[C@H](c1ccc(/C=C/c3ccccc3)cc1F)N(Cc1ccccc1)C2=O | – | inactive: -0.0653%
31 | Cc1cccc2cc3c(NC(=O)CC(C)C)nn(C)c3nc12 | inconclusive: 28.2 µM [inhibitor, single point] | –
32 | O=C(NC1CCCCC1)c1cc(S(=O)(=O)N2CCOCC2)c(Cl)cc1Cl | inconclusive: 50.1 µM [inhibitor, single point] | –
33 | O=C(Cn1cnc2ccccc2c1=O)Nc1ccccc1N1CCOCC1 | – | inactive: -0.845%
34 | COc1cc(/C=C2/SC(=Nc3ccc(O)cc3)NC2=O)ccc1O | – | inactive: 0.617%
35 | CCOCCSC1=C(C#N)C(c2cccs2)C(C(C)=O)=C(C)N1 (stereo not given) | – | inactive: 0.697%
36 | O=C(O)c1ccc(/C=C2\CCCc3c2nc2ccccc2c3C(=O)O)cc1 | inconclusive: 22.4 µM [inhibitor, single point] | –
37 | CN(C)c1ccc(N=Nc2ccccc2Br)cc1 | – | inactive: -0.892%
38 | Cc1ccc(C)c(C(=O)COC(=O)Cn2c(C)csc2=O)c1 | – | inactive: -1.08%
39 | Cc1nc(-c2ccc(S(=O)(=O)NCc3cccnc3)s2)cs1 | inconclusive: 100 µM [inhibitor, single point] | –
40 | CC(C)c1ccccc1OCC(O)CN1CCN(S(=O)(=O)c2ccc([N+](=O)[O-])cc2)CC1 (stereo not given) | – | inactive: -1.94%
41 | COC(=O)c1cn(NC(=O)Cc2cccc(C(F)(F)F)c2)c(=O)c2ccccc12 | inconclusive: 79.4 µM [inhibitor, single point] | –
42 | COC(=O)c1ccc(NC(=O)CN2CCC(NC(=O)c3ccco3)CC2)cc1 | inconclusive: 79.4 µM [inhibitor, single point] | –
43 | CS(=O)(=O)c1nc(-c2cccs2)cc(C(F)(F)F)n1 | inconclusive: 112 µM [inhibitor, single point] | –
44 | CCOc1ccc(C(C(=O)NC2CCCC2)N(C(=O)CNC(=O)c2ccco2)c2cccnc2)cc1 (stereo not given) | inconclusive: 100 µM [inhibitor, single point] | –
45 | Cc1nc(SCC(=O)Nc2c(C)n(C)n(-c3ccccc3)c2=O)c(C#N)c(C)c1C | inconclusive: 14.1 µM [inhibitor, single point] | –
